Patent publication US20220267441A1
Residue numbers refer to the chain shown, from its start. Names and notes keep the numbering of the source. Results are given in words; binding and its absence hold for the method and conditions named. Some entries that bind do so weakly or less than the wild type.

The chains behind the UniProt entries cited, without tags or fusion partners. Where a name states a change or a piece, a line headed by the entry shows the natural chain unless it says otherwise.
UniProt P08575: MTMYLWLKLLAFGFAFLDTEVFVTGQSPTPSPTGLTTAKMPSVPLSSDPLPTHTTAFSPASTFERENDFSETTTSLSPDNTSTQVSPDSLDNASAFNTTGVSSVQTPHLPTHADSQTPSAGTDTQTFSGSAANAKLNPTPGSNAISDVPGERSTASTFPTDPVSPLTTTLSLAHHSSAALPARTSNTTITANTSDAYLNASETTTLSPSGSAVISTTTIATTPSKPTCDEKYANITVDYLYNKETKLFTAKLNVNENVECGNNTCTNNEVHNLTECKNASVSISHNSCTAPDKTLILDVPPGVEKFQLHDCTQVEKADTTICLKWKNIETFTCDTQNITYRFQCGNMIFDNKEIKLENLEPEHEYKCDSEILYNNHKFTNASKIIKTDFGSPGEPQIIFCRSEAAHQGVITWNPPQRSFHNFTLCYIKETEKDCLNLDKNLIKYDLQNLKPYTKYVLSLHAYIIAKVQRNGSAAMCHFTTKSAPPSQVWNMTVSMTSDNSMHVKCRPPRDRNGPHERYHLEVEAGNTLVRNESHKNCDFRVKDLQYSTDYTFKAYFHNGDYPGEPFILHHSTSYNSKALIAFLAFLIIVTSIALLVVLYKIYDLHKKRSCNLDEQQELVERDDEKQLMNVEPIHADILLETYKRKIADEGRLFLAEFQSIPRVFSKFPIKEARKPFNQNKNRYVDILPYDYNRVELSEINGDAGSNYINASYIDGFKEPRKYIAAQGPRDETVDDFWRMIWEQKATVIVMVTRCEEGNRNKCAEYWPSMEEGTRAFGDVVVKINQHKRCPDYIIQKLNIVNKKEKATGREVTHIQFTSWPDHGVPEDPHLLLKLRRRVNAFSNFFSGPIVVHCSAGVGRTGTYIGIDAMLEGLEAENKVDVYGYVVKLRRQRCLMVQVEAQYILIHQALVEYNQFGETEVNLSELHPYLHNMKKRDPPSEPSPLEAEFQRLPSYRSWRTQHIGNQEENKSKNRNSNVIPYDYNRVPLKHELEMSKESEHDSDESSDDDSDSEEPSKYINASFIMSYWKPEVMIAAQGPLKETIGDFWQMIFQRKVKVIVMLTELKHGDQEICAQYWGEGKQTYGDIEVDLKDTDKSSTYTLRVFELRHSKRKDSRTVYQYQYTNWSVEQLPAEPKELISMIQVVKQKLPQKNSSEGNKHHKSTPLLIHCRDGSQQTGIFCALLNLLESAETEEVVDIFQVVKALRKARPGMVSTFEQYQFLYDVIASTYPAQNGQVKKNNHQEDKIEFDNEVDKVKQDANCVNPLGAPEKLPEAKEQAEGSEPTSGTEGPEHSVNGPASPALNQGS

B1: Ab5 (D265C LALA H435A) (antibody, human IgG1, kappa, L234A L235A, V domains shown)
VH: EVQLVESGGGLVQPGGSLRLSCAASGFTFEAYSMNWVRQAPGKGLEWVSYISLSGATIHYADSVKGRFTISRDNAKNSLYLQMNSLRAEDTAVYYCARGGQYYYTSSDYGEVAFDIWGQGTMVTVSS
VL: DIVMTQSPLSLPVTPGEPASISCRSSQSLVSSGYNYLDWYLQKPGQSPQLLIYFGSSRASGVPDRFSGSGSGTDFTLKISRVEAEDVGVYYCMQRRRTPWSFGGGTKVEIKR
B2: Ab7 (D265C LALA H435A) (antibody, human IgG1, kappa, L234A L235A, V domains shown)
VH: B1 VH with E1Q, Q13K, E30G, A31G, L53I, H59T, T105D
VL: DIVMTQSPLSLPVTPGEPASISCRSSQSLVSSGYNYLDWYLQKPGQSPQLLIYFGSSRASGVPDRFSGSGSGTDFTLKISRVEAEDVGVYYCMQRRRTPPFTFGGGTKVEIKR
B3: Antibody A (AbA) (antibody, V domains shown)
VH: EVQLLESGGGLVQPGGSLRLSCAASGFTFNNYWMTWVRQAPGKGLEWVSSISSSGGSIYYPDRVKGRFTISRDNSKNTLYLQMNSLRAEDTAVYYCARDERWAGAMDAWGQGTTVTVSS
VL: DIQMTQSPSSLSASVGDRVTITCKASQNINKNLDWYQQKPGKAPKLLIYETNNLQTGVPSRFSGSGSGTDFTLTISSLQPEDFATYYCYQHNSRFTFGQGTKLEIK
B4: Antibody B (AbB) (antibody, IgG1, V domains shown)
VH: EVQLVESGGGLVQPGGSLRLSCAASGFTFTNFWMAWIRQAPGKGLEWVASISSSGGSIYYPDSVKDRFTISRDNSKNTLYLQMNSLRAEDTAVYYCVKFHHYSGGGDAWGQGTLVTVSS
VL: DIQMTQSPSSLSASVGDRVTITCKASQNINKYLDWYQQKPGKAPKLLIHYTNNLHTGIPSRFSGSGSGTDYTLTISSLQPEDFATYYCLQHSSRWTFGGGTKVEIK
B5: Antibody C (AbC) (antibody, IgG1, V domains shown)
VH: EVQLVESGGGLVQPGGSLRLSCAASGFTFNNYWMTWVRQAPGKGLEWVSSISSSGGSIYYPDSVKDRFTISRDNAKNSLYLQMNSLRAEDMAVYYCARLYYYDGGGDAWGQGTLVTVSS
VL: B4 VL with D1G, N28D, H49Y, Y50N, S92I
B6: AbA_D265C_LALA_H435A (antibody, human IgG1, kappa, L234A L235A, V domains shown)
VH: B3 VH
VL: DIQMTQSPSSLSASVGDRVTITCKASQNINKNLDWYQQKPGKAPKLLIYETNNLQTGVPSRFSGSGSGTDFTLTISSLQPEDFATYYCYQHNSRFTFGQGTKLEIKR
B7: AbB_D265C_LALA_H435A (antibody, human IgG1, kappa, L234A L235A, V domains shown)
VH: B4 VH
VL: DIQMTQSPSSLSASVGDRVTITCKASQNINKYLDWYQQKPGKAPKLLIHYTNNLHTGIPSRFSGSGSGTDYTLTISSLQPEDFATYYCLQHSSRWTFGGGTKVEIKR
B8: AbC_D265C_LALA_H435A (antibody, human IgG1, kappa, L234A L235A, V domains shown)
VH: B5 VH
VL: B7 VL with D1G, N28D, H49Y, Y50N, S92I

target: human CD45 on live cells (REH-1 cells, primary human PBMCs) (human) (UniProt P08575); experiment: flow cytometry on REH CD45+ cells, AF488 anti-human IgG secondary antibody

binding, binds:
B1
B2

target: human CD45 on live cells (REH-1 cells, primary human PBMCs) (human) (UniProt P08575); experiment: flow cytometry on primary human PBMCs, AF488 anti-human IgG secondary antibody

binding, binds:
B1
B2

target: human CD45 on live cells (REH-1 cells, primary human PBMCs) (human) (UniProt P08575); experiment: flow cytometry on human PBMCs

binding, binds:
B3
B4
B5
B6
B7
B8

target: human CD45 on live cells (REH-1 cells, primary human PBMCs) (human) (UniProt P08575); experiment: flow cytometry on human PBMCs and REH-1 cells

binding, binds:
B1
B2

target: human CD45 on live cells (REH-1 cells, primary human PBMCs) (human) (UniProt P08575); experiment: flow cytometry on primary human PBMCs ('Human binding'), AF488 anti-human IgG secondary antibody

binding, binds:
B3
B4
B5
